PubChem BioAssay AID1259308 – NCATS – 2017
Assay: 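Candidate targets for better recombinant protein yield in mammalian cells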 (primary screen). Cells: human HEK293 embryonic kidney cells stably expressing firefly luciferase (HEK-CMV-Luc2-Hygro). Reagent: single siRNA against human genes, 0.8 pmol siRNA per well. Time to read-out: 72 h. Measured: 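Luciferase light (ONE-Glo) measured on one replicate plate set and viability (CellTiter-Glo) on the other, scaled to a negative control siRNA, with robust z-scores and luciferase per cell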. Reading the numbers: total luciferase, z-score: higher = more reporter protein produced. Hit rule: 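An siRNA counts as active if its total luciferase robust z-score exceeds 3; genes with two or more such siRNAs out of three were retested with fresh siRNAs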. Meaning of the calls: active = raised luciferase; inactive = no rise.
Shown is one part, drawn at random, of about 59,000 reagents. In the full data, about 1,510 (2.6%) were called active. 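Calls use total luciferase alone and ignore viability, so some active siRNAs may act by altering cell number.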 Entries without a mark were called inactive. Further read-outs or replicates are left out here.

| gene | PubChem SID | total luciferase, z-score |
| --- | --- | --- |
| AMOTL2 (angiomotin like 2) | SID160740778 | -0.0482 |
| AMOTL2 (angiomotin like 2) | SID160740779 | -0.517 |
| AMOTL2 (angiomotin like 2) | SID160740781 | -0.219 |
| KIAA0408 | SID160722922 | 1.88 |
| KIAA0408 | SID160722923 | 0.0266 |
| KIAA0408 | SID160722925 | 0.463 |
| HSPA13 (heat shock protein family A (Hsp70) member 13) | SID160717460 | -1.23 |
| HSPA13 (heat shock protein family A (Hsp70) member 13) | SID160717461 | 0.213 |
| HSPA13 (heat shock protein family A (Hsp70) member 13) | SID160717462 | 0.437 |
| CIROZ | SID160732555 | -1.46 |
| CIROZ | SID160758691 | 0.928 |
| CIROZ | SID160758692 | 0.234 |
| FLJ46838 (retired record) | SID160767877 | 0.458 |
| FLJ46838 (retired record) | SID160767878 | 0.377 |
| FLJ46838 (retired record) | SID160767880 | -0.75 |
| JOSD1 (Josephin domain containing 1) | SID160723469 | 1.74 |
| JOSD1 (Josephin domain containing 1) | SID160723470 | 0.1 |
| JOSD1 (Josephin domain containing 1) | SID160723471 | 0.592 |
| MAPK4 (mitogen-activated protein kinase 4) | SID160714983 | -0.744 |
| MAPK4 (mitogen-activated protein kinase 4) | SID160714984 | -1.4 |
| MAPK4 (mitogen-activated protein kinase 4) | SID160731540 | -0.694 |
| NAALADL2 (N-acetylated alpha-linked acidic dipeptidase like 2) | SID160762228 | 0.281 |
| NAALADL2 (N-acetylated alpha-linked acidic dipeptidase like 2) | SID160762229 | -0.658 |
| NAALADL2 (N-acetylated alpha-linked acidic dipeptidase like 2) | SID160762230 | 0.231 |

In a second layout: results already given.
{"gene":"NAALADL2 (N-acetylated alpha-linked acidic dipeptidase like 2)","PubChem SID":"SID160762228","total luciferase, z-score":0.281}
{"gene":"NAALADL2 (N-acetylated alpha-linked acidic dipeptidase like 2)","PubChem SID":"SID160762229","total luciferase, z-score":-0.658}
